Record: PubChem BioAssay AID1259254 (NCATS, 2017)
Assay: 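Gene knock-downs that lead to re-replication, shown by excess G2 DNA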 (primary screen). System: human HCT116 colorectal cancer cells. Reagent: single siRNA against human genes. Timing: 3 days. Measurement: 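Imaged Hoechst DNA stain sorts each cell into a cycle phase by DNA amount; per plate, G2 fraction set to 0% for non-targeting and 100% for GMNN siRNA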. Scale: G2 robust z-score and G2 cells, % of GMNN control: higher = more G2 cells, more excess DNA replication. Hit rule: 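Active siRNAs have a G2 robust z of 5 or more median absolute deviations over the median, which in these data means about 38% or higher of GMNN control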.
The deposit covers about 59,000 reagents; shown is a random part of them. Over the whole deposit, about 1,550 (2.6%) are marked active. 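G2 share is only a proxy for re-replication; each gene was hit by three separate siRNAs, and active genes were retested.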 Not all columns of the deposit are shown. Not stated in the record: the amount of reagent.

HMGN4 [SID160728511] → G2 robust z-score = -0.0276; G2 cells, % of GMNN control = 2.77; outcome = inactive
HMGN4 [SID160728512] → G2 robust z-score = -0.00891; G2 cells, % of GMNN control = 2.9; outcome = inactive
HMGN4 [SID160728513] → G2 robust z-score = -0.951; G2 cells, % of GMNN control = -3.73; outcome = inactive
CEACAM6 [SID160777791] → G2 robust z-score = 4.72; G2 cells, % of GMNN control = 36.2; outcome = inactive
CEACAM6 [SID160777792] → G2 robust z-score = -0.845; G2 cells, % of GMNN control = -2.98; outcome = inactive
CEACAM6 [SID160777793] → G2 robust z-score = 7.37; G2 cells, % of GMNN control = 54.8; outcome = active

In a second layout: entries from further up
HMGN4 [SID160728511]
- G2 robust z-score: -0.0276
- G2 cells, % of GMNN control: 2.77
- outcome: inactive

HMGN4 [SID160728512]
- G2 robust z-score: -0.00891
- G2 cells, % of GMNN control: 2.9
- outcome: inactive

The list goes on:
ARRDC5 [SID160769544] → G2 robust z-score = -0.445; G2 cells, % of GMNN control = -0.166; outcome = inactive
ARRDC5 [SID160769545] → G2 robust z-score = -0.458; G2 cells, % of GMNN control = -0.252; outcome = inactive
ARRDC5 [SID160769546] → G2 robust z-score = -0.366; G2 cells, % of GMNN control = 0.395; outcome = inactive
RABEP1 [SID160721560] → G2 robust z-score = 4.13; G2 cells, % of GMNN control = 32.1; outcome = inactive
RABEP1 [SID160721561] → G2 robust z-score = 0.374; G2 cells, % of GMNN control = 5.6; outcome = inactive
RABEP1 [SID160721562] → G2 robust z-score = -0.344; G2 cells, % of GMNN control = 0.549; outcome = inactive
